From patent publication US20030113837

Assays:
[1] = biological target: T1, TnpI (partially purified wild-type) (Bacillus thuringiensis) (UniProt P10020); assay: enzyme reaction in vitro; settings: activity similar to His-tagged protein, 37 C, purified recombinant protein, variant of TRT″
T1 sequence: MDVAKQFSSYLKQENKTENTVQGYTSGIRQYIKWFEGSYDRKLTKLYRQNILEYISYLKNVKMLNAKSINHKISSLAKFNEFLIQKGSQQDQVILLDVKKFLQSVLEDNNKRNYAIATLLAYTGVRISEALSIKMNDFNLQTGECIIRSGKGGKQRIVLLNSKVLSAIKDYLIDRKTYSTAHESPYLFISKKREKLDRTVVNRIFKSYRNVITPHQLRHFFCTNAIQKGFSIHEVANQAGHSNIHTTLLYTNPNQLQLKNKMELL

[2] = biological target: T2, H-TnpI (Bacillus thuringiensis) (UniProt P10020); assay: enzyme reaction in vitro; settings: 37 C, purified recombinant protein, protein details: N-terminal His-tag (pBAD/HisA, Invitrogen), variant of TRT″
T2 sequence: T1 sequence

[3] = biological target: T3, TnpI (wild-type) (Bacillus thuringiensis) (UniProt P10020); assay: activity in cells; settings: E. coli, protein in cells
T3 sequence: T1 sequence

## TAATACAACACAATATTAATTGTGTTGTATTA (double strand) [TRT]
[1]; plasmid pGIV016
  activity on this sequence: active
[2]; two directly repeated sites on supercoiled plasmid pGIV016, same buffer, slower than TRT′, catenanes of varied complexity and knots
  activity on this sequence: active

## TAATACAACACAATATTAATTGTGTTGTATTAGGTGTTATAATAAATATAAATCTAGGGGTTTAACGCAACACAATTTATCGATAAATAAATACTTTTAGACGCAACACAATTTATAG (double strand) [TRT′]
[1]; plasmid pGIV014
  activity on this sequence: active
[2]; two directly repeated sites on supercoiled plasmid pGIV014, 50 mM Tris pH 8.0, 25 mM KCl, 1.25 mM EDTA, 5 mM spermidine, faster than TRT
  activity on this sequence: active
[3]; expected deletion product only with TnpI, variant of TRT″
  activity on this sequence: active

## GGTACCGCCAGCATTTCGGAAAAAAACCACGCTAAGAAAATCAGAGTTAAAAAATCAGAAAATATATCATTATTCCTTGACACATACATGTTCTTTTTTTATACAAAAAATAATACAACACAATATTAATTGTGTTGTATTAGGTGTTATAATAAATATAAATCTAGGGGTTTAACGCAACACAATTTATCGATAAATAAATACTTTTAGACGCAACACAATTTATAGACGCGGAGGAAATCAC (double strand) [TRT″]
[3]; arabinose-induced TnpI, two direct repeat copies on plasmid, recombination detected
  activity on this sequence: active

The exact form of at least one protein or probe is not confirmed. Where a protein sequence is shown, tags need not be part of it.
